Measurements: paper PMC8782983
Results are given in words; binding and its absence hold for the method and conditions named. For part of these data: Binding seen in cells or lysates may run through a third protein. Some binding calls cover weakened binding; strength is not graded here. For part of these data: Where a sequence is shown, tags or fusion partners need not be part of it.

Amino acid sequences for entries named in this document (tags omitted).
UniProt Q9GZV4: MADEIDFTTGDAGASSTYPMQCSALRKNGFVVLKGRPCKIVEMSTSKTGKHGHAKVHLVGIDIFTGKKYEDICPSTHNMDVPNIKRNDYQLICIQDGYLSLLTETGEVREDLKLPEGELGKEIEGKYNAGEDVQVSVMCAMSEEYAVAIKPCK

What was measured:
[1] = biological target: T1, HERC3, endogenous (human (endogenous in HCT116)) (UniProt Q15034); assay: co-IP; endogenous proteins; lysates of HCT116 cells, co-IP with anti-HERC3 or anti-EIF5A2 and control IgG
T1 sequence: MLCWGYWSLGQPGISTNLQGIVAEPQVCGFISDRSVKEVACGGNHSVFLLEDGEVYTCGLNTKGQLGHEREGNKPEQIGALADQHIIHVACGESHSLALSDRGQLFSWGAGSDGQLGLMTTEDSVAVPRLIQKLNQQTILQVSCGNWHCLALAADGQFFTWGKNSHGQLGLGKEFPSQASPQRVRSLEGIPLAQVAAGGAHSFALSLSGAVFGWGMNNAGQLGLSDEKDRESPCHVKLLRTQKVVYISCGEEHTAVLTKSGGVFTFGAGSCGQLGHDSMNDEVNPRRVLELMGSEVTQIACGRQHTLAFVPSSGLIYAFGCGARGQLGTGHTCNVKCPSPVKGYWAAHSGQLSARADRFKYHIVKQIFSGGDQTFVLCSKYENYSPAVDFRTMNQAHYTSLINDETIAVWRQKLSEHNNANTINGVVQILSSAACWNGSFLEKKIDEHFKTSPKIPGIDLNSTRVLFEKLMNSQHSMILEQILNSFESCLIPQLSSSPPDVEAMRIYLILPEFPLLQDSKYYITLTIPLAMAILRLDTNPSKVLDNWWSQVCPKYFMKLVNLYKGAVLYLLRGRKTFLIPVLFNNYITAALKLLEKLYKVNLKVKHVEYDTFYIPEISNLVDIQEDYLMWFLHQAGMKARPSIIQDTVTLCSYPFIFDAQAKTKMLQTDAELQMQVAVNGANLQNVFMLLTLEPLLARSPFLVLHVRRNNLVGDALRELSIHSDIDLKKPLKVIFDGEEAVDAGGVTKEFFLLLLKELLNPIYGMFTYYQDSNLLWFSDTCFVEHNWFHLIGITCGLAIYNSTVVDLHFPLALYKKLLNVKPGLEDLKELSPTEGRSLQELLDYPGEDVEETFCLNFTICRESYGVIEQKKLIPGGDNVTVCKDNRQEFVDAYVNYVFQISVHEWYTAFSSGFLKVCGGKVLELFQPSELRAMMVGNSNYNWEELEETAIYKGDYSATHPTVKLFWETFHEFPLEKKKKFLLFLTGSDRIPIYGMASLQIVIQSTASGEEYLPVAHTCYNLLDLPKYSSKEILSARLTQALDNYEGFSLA

HERC3-Myc, wild type = biological target: T2, HERC3-Myc, wild type (UniProt Q15034); assay: co-IP; HCT116 cells transfected with the indicated plasmids; co-IP buffer (50 mM Tris-HCl, 5 mM EDTA, 150 mM NaCl, 1% NP-40, pH 7.6); antibodies and Protein G agarose beads or affinity gels, 4 °C overnight, with or without RNase (50 μg/ml)
T2 sequence: T1 sequence

GST-HERC3 = biological target: T3, GST-HERC3 (UniProt Q15034); assay: pull-down; GST pull-down; purified recombinant proteins (20 μg) with glutathione sepharose 4B in 500 μl pulldown buffer (20 mM Tris-Cl, 5 mM MgCl2, 100 mM NaCl, 1 mM DTT, 1 mM EDTA, 0.5% NP-40, 10 μg/ml BSA, pH 7.5); five washes, western blotting; both purified
T3 sequence: T1 sequence

## EIF5A2, endogenous (from UniProt Q9GZV4 1-153)
[1]
  binding: binds

## EIF5A2-Flag (from UniProt Q9GZV4 1-153)
HERC3-Myc, wild type
  binding: binds

## His-tagged EIF5A2, recombinant (from UniProt Q9GZV4 1-153)
GST-HERC3
  binding: binds
